## Results from one PubChem assay

Data taken from PubChem BioAssay AID1159506, deposited by NCATS (2015).

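Genome-wide siRNA knockdown in TC32 Ewing sarcoma cells, comparing luciferase light from an NR0B1-promoter reporter with a CMV-promoter reporter 48 hours after transfection.
Each siRNA was applied at 20 nM.
A z-score of the log NR0B1-over-CMV signal, less the median of siRNAs with the same seed; more negative means a stronger specific loss of the NR0B1 reporter.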

This is part of the screen; most of the strongest results are not listed here.
Sequences are the guide (antisense) strand, without overhang.

With UUAGUAGUAACCUCAGACC against C17orf47 the assay gave seed-corrected z-score 1.399.
With UAACAUAUCAUCAAUACUC against RAD9B the assay gave seed-corrected z-score -0.1147.
With UGCCGUUUGUACUUUGUCC against EMX1 the assay gave seed-corrected z-score -0.004581.
With UUCGGUAAUUGAUAUAGUG against THRB the assay gave seed-corrected z-score 0.5521.
With UUCGUGUCUCCUUAGGUUC against CFP the assay gave seed-corrected z-score 0.6335.
With UUCAUACCCAUGUUCAUAU against ZIC2 the assay gave seed-corrected z-score -0.3615.
With ACUCGUUGCACUGAAAGGG against ZNF2 the assay gave seed-corrected z-score 0.2928.
With AAUCUUGCACUCUUGUUCC against ACOXL the assay gave seed-corrected z-score -1.687.
With AGCCUUACUAUGAUGUUCG against SMCO1 the assay gave seed-corrected z-score -1.015.
With UAGGUAAUGAAGACGGUCU against HTR3C the assay gave seed-corrected z-score 0.02623.
With UCUGAUCUAAUGACAUUAC against LOC644852 the assay gave seed-corrected z-score -0.5606.
With UCACAGGCUACAAUUUUCA against GTF2A2 the assay gave seed-corrected z-score -0.4027.
With UACAGUUCCCAAUUCCUUU against CALM2 the assay gave seed-corrected z-score 0.2943.
With UUUGUUUUCAGACAGUAGC against CHCHD6 the assay gave seed-corrected z-score 1.355.
With UCGUGUAUUAAUAGAGGUC against R3HCC1L the assay gave seed-corrected z-score -0.2275.
With ACAGCCUUUCCUGAGAUGG against BBC3 the assay gave seed-corrected z-score -0.4292.
With UUCCAGACACCUUUCGAUG against POLRMT the assay gave seed-corrected z-score -1.02.
With UCUGUGAGGAUAAACCAGC against CYTH2 the assay gave seed-corrected z-score -0.5083.
With UAAGUCAAGGUCACGUCCC against RAMP1 the assay gave seed-corrected z-score -0.000569.
With UUCUCGUGUAUAUUCAGGG against PITPNA the assay gave seed-corrected z-score 0.07158.
With UACGCUACAGCUUCAUCUG against HSPA5 the assay gave seed-corrected z-score -0.8783.
With AAACCAUGAACAGUUAGGG against VPS13D the assay gave seed-corrected z-score 0.6547.
With UUAGUGUCAACAAACGGCU against NCK2 the assay gave seed-corrected z-score 0.8145.
With UUCCCUCUCACUGCUCACU against OCEL1 the assay gave seed-corrected z-score -0.1999.
With UUCAGGAUUGCGUCAAACC against HMGCL the assay gave seed-corrected z-score -0.5088.
With AAUUCUUUCACGAUCGUUG against ARF4 the assay gave seed-corrected z-score 0.02067.
With UUCUCAAUCCUGUUACACC against USP44 the assay gave seed-corrected z-score -0.1768.
With ACUUAUAUCAGACAACAGC against ATG4A the assay gave seed-corrected z-score 0.4854.
With UCAUGUUGUCGAUAGCUGC against PPIE the assay gave seed-corrected z-score -0.2881.
With UCUGAGCUUAGGAUAGUGC against AMTN the assay gave seed-corrected z-score 0.1089.
With UGCUGUACAGAUAACUUGG against SLC18A2 the assay gave seed-corrected z-score 0.4219.
With AAUGGUGAGAUUUAAUGUC against FLJ46284 the assay gave seed-corrected z-score 0.8689.
With UCCAGAGCAACUUAAAUCC against SLC11A2 the assay gave seed-corrected z-score -0.1314.
With UUUGCUAUUUACAAGCUCC against ANKRD20A5P the assay gave seed-corrected z-score 0.006938.
With UUCUGUUUCGUCAGGUUCC against PRKCG the assay gave seed-corrected z-score -0.02006.
With UCUGGAUUCUCCAAUAUGG against CCNH the assay gave seed-corrected z-score 0.9197.
With UUCAGUACAAUGGAAGGAC against PHLDB3 the assay gave seed-corrected z-score 0.7309.
With UAAACUCAAAAGAAGUUCC against NADK2 the assay gave seed-corrected z-score 0.6921.
With UUCAUAUCCACCACGAUAG against SYNCRIP the assay gave seed-corrected z-score -0.7984.
With AACUCAUCCCGUUUGCUCC against UBTD1 the assay gave seed-corrected z-score -0.0541.
With UAUUUAUCACAGGAAAGAC against RPL18P4 the assay gave seed-corrected z-score 0.372.
With UAAUGGGUUAGGGAUAUCC against MBD5 the assay gave seed-corrected z-score 0.03896.

For reference, 2 entries once more:

strand,target gene,seed-corrected z-score
AAUCUUGCACUCUUGUUCC,ACOXL,-1.687
UCAUGUUGUCGAUAGCUGC,PPIE,-0.2881